No constants are given. Whether binding was seen depends on the method and setting. Some entries that bind do so weakly or less than the wild type.
Assays:
CD22-Fc [1] = target: CD22-Fc (UniProt P20273); experiment: flow cytometry of CD22-TCAR transduced JNL cells, CD22-Fc and anti-Fc secondary antibody
CD22-Fc [2] = target: CD22-Fc (UniProt P20273); experiment: flow cytometry of JNL cells transduced with both TCARs, CD22-Fc and anti-Fc secondary antibody
CD22-Fc [3] = target: CD22-Fc (UniProt P20273); experiment: flow cytometry of JNL cells transduced with both TCARs

Chains of the proteins cited; added tags and fusions are not shown. Residues count along the entry.
UniProt P20273, residues 20-687: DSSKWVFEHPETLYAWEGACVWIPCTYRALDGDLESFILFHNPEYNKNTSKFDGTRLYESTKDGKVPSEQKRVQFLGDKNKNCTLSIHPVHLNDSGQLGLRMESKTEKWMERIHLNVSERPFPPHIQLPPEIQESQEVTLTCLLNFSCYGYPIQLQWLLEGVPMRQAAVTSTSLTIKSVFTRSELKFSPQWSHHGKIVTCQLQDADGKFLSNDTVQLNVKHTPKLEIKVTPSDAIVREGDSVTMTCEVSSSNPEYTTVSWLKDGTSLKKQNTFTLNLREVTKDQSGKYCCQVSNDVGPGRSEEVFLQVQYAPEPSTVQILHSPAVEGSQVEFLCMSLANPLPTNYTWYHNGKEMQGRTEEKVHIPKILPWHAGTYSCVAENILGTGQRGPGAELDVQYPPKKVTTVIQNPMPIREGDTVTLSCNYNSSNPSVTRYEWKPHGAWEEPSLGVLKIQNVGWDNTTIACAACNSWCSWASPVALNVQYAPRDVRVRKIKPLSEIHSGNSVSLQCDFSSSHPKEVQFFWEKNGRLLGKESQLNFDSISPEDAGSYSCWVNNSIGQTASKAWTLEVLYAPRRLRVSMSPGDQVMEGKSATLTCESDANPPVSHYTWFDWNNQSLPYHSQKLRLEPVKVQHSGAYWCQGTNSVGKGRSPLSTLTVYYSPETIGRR

Measured: binding

B1: CD22-65scFv-G4S-CD3eECDTM-41BB (protein)
chain: EVQLQQSGPGLVKPSQTLSLTCAISGDSMLSNSDTWNWIRQSPSRGLEWLGRTYHRSTWYDDYASSVRGRVSINVDTSKNQYSLQLNAVTPEDTGVYYCARVRLQDGNSWSDAFDVWGQGTMVTVSSGGGGSGGGGSGGGGSQSALTQPASASGSPGQSVTISCTGTSSDVGGYNYVSWYQQHPGKAPKLMIYDVSNRPSGVSNRFSGSKSGNTASLTISGLQAEDEADYYCSSYTSSSTLYVFGTGTQLTVLGGGGSQDGNEEMGGITQTPYKVSISGTTVILTCPQYPGSEILWQHNDKNIGGDEDDKNIGSDEDHLSLKEFSELEQSGYYVCYPRGSKPEDANFYLYLRARVCENCMEMDVMSVATIVIVDICITGGLLLLVYYWSKRGRKKLLYIFKQPFMRPVQTTQEEDGCSCRFPEEEEGGCEL
binds: all assays above
